Results taken from the supplement of paper PMC8728848.
This is one part of the list.

Tests used:
Experiment in all cases: glycan array binding signal (z-score within array); higher = stronger binding
Details in all cases: glycan notation: IUPAC condensed, linker removed
[1] = biological target: Kdn(a2-3)Gal(b1-4)Glc
Method in brief: (§1)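 Negative Z-scores can be read as non-binding. The Z-score is calculated within each array and then averaged across arrays of one protein sequence at different concentrations or buffers and across linkers. Arrays, 3228 in all, were curated from the Consortium for Functional Glycomics database and kept only where the protein sequence was available.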

[2] = biological target: Kdn(a2-3)Gal(b1-4)GlcNAc
Method in brief: as §1

[3] = biological target: Kdn(a2-3)Gal(b1-4)[Fuc(a1-3)]GlcNAc
Method in brief: as §1

[4] = biological target: Kdn(a2-6)Gal(b1-4)GlcNAc
Method in brief: as §1

[5] = biological target: Man(a1-2)Man(a1-2)Man(a1-3)Man
Method in brief: as §1

[6] = biological target: Man(a1-2)Man(a1-2)Man(a1-6)[Man(a1-3)]Man
Method in brief: as §1

[7] = biological target: Man(a1-2)Man(a1-3)Man
Method in brief: as §1

[8] = biological target: Man(a1-2)Man(a1-3)[Man(a1-2)Man(a1-6)]Man
Method in brief: as §1

[9] = biological target: Man(a1-2)Man(a1-3)[Man(a1-2)Man(a1-6)]Man(a1-6)[Man(a1-2)Man(a1-2)Man(a1-3)]Man
Method in brief: as §1

[10] = biological target: Man(a1-2)Man(a1-3)[Man(a1-2)Man(a1-6)]Man(a1-6)[Man(a1-2)Man(a1-2)Man(a1-3)]Man(b1-4)GlcNAc(b1-4)GlcNAc
Method in brief: as §1

[11] = biological target: Man(a1-2)Man(a1-3)[Man(a1-6)]Man(a1-6)[Man(a1-2)Man(a1-3)]Man(b1-4)GlcNAc(b1-4)GlcNAc
Method in brief: as §1

[12] = biological target: Man(a1-2)Man(a1-6)[Man(a1-3)]Man(a1-6)[Man(a1-2)Man(a1-2)Man(a1-3)]Man
Method in brief: as §1

[13] = biological target: Man(a1-2)Man(a1-6)[Man(a1-3)]Man(a1-6)[Man(a1-2)Man(a1-2)Man(a1-3)]Man(b1-4)GlcNAc(b1-4)GlcNAc
Method in brief: as §1

[14] = biological target: Man(a1-3)[Man(a1-6)]Man
Method in brief: as §1

[15] = biological target: Man(a1-3)[Man(a1-6)]Man(a1-6)[Man(a1-2)Man(a1-3)]Man(b1-4)GlcNAc(b1-4)GlcNAc
Method in brief: as §1

[16] = biological target: Man(a1-3)[Man(a1-6)]Man(a1-6)[Man(a1-3)]Man
Method in brief: as §1

[17] = biological target: Man(a1-3)[Man(a1-6)]Man(a1-6)[Man(a1-3)]Man(b1-4)GlcNAc(b1-4)GlcNAc
Method in brief: as §1

[18] = biological target: Man(a1-3)[Man(a1-6)]Man(b1-4)GlcNAc(b1-4)GlcNAc
Method in brief: as §1

[19] = biological target: Man(a1-3)[Man(a1-6)]Man(b1-4)GlcNAc(b1-4)[Fuc(a1-6)]GlcNAc
Method in brief: as §1

[20] = biological target: Man(a1-6)Man
Method in brief: as §1

[21] = biological target: Man(b1-4)GlcNAc
Method in brief: as §1

[22] = biological target: MurNAc(b1-4)GlcNAc
Method in brief: as §1

[23] = biological target: Neu5Ac(a2-3)Gal
Method in brief: as §1

[24] = biological target: Neu5Ac(a2-3)Gal(b1-3)GalNAc
Method in brief: as §1

[25] = biological target: Neu5Ac(a2-3)Gal(b1-3)GalNAc(b1-3)Gal(a1-4)Gal(b1-4)Glc
Method in brief: as §1

[26] = biological target: Neu5Ac(a2-3)Gal(b1-3)GalNAc(b1-4)[Neu5Ac(a2-3)]Gal(b1-4)Glc
Method in brief: as §1

[27] = biological target: Neu5Ac(a2-3)Gal(b1-3)GalNAc(b1-4)[Neu5Ac(a2-8)Neu5Ac(a2-3)]Gal(b1-4)Glc
Method in brief: as §1

[28] = biological target: Neu5Ac(a2-3)Gal(b1-3)GalNAc6S
Method in brief: as §1

[29] = biological target: Neu5Ac(a2-3)Gal(b1-3)GlcNAc
Method in brief: as §1

[30] = biological target: Neu5Ac(a2-3)Gal(b1-3)GlcNAc(b1-2)Man
Method in brief: as §1

[31] = biological target: Neu5Ac(a2-3)Gal(b1-3)GlcNAc(b1-2)Man(a1-3)[GlcNAc(b1-4)][Neu5Ac(a2-3)Gal(b1-3)GlcNAc(b1-2)Man(a1-6)]Man(b1-4)GlcNAc(b1-4)GlcNAc
Method in brief: as §1

[32] = biological target: Neu5Ac(a2-3)Gal(b1-3)GlcNAc(b1-2)Man(a1-3)[Neu5Ac(a2-3)Gal(b1-3)GlcNAc(b1-2)Man(a1-6)]Man(b1-4)GlcNAc(b1-4)GlcNAc
Method in brief: as §1

[33] = biological target: Neu5Ac(a2-3)Gal(b1-3)GlcNAc(b1-3)Gal(b1-3)GlcNAc
Method in brief: as §1

[34] = biological target: Neu5Ac(a2-3)Gal(b1-3)GlcNAc(b1-3)Gal(b1-4)GlcNAc
Method in brief: as §1

[35] = biological target: Neu5Ac(a2-3)Gal(b1-3)GlcNAc(b1-3)GalNAc
Method in brief: as §1

[36] = biological target: Neu5Ac(a2-3)Gal(b1-3)GlcNAc(b1-4)Gal(b1-4)Glc
Method in brief: as §1

[37] = biological target: Neu5Ac(a2-3)Gal(b1-3)GlcNAc(b1-6)GalNAc
Method in brief: as §1

[38] = biological target: Neu5Ac(a2-3)Gal(b1-3)GlcNAc6S
Method in brief: as §1

B1: PX9961M-bvu-482-23-482 (Bacteroides vulgatus) (protein)
chain: WLDLAPSTQVDTETSINVLSDIEFTLNGIYSTMQSSDAYSGRLVYYGDVTGDDMQAVSSTKRTGNYYRFNFTKDNGPSSHWSYLYSIIQNCNLILMNVDKLSIDEDETEYKNDLKGQALAIRGMALFDLTRIFGYPYLKDNGASLGVPIVKELSTIDSKPARNTVAECYTEIISDLKNSTELLSGDFNKGKVNRWAAMTLLSRVYLYKGEYNEALTMAENAIKGAEKEGYALWTNEEYPTAWGNDASASNPGEILFEIVNLTTDSPGKESMGYLNSYNGYDDMCITCSFYQLLKKDPKDVRLKILSFDKKYYAYVNKYQPQQGENITDANIPLIRLSEAYLNAAEAAVQTGDNAKAVKYLNSIVQRANPENSVEGKTLTLENVLDERRKELVAEGHRMYDVIRNGMTVKRIDVKDSDINKTKHNTAYMEYDWNFHKILLPIPKKEMDANPNMKQNPGYVD
glycan array binding signal (z-score) [1]: 0.964 | glycan array binding signal (z-score) [2]: 0.088 | glycan array binding signal (z-score) [3]: 0.143 | glycan array binding signal (z-score) [4]: -0.275 | glycan array binding signal (z-score) [5]: -0.771 | glycan array binding signal (z-score) [6]: 0.455 | glycan array binding signal (z-score) [7]: -0.314 | glycan array binding signal (z-score) [8]: -0.326 | glycan array binding signal (z-score) [9]: -0.849 | glycan array binding signal (z-score) [10]: -0.156 | glycan array binding signal (z-score) [11]: -0.917 | glycan array binding signal (z-score) [12]: -0.582 | glycan array binding signal (z-score) [13]: -0.222 | glycan array binding signal (z-score) [14]: -0.711 | glycan array binding signal (z-score) [15]: 0.063 | glycan array binding signal (z-score) [16]: 2.74 | glycan array binding signal (z-score) [17]: 0.781 | glycan array binding signal (z-score) [18]: -0.322 | glycan array binding signal (z-score) [19]: -0.449 | glycan array binding signal (z-score) [20]: -0.459 | glycan array binding signal (z-score) [21]: -0.469 | glycan array binding signal (z-score) [22]: 0.229 | glycan array binding signal (z-score) [23]: -0.037 | glycan array binding signal (z-score) [24]: -0.391 | glycan array binding signal (z-score) [25]: -0.335 | glycan array binding signal (z-score) [26]: -0.476 | glycan array binding signal (z-score) [27]: 0.996 | glycan array binding signal (z-score) [28]: -0.6 | glycan array binding signal (z-score) [29]: -0.551 | glycan array binding signal (z-score) [30]: 0.535 | glycan array binding signal (z-score) [31]: -0.624 | glycan array binding signal (z-score) [32]: -0.296 | glycan array binding signal (z-score) [33]: -1.15 | glycan array binding signal (z-score) [34]: 0.527 | glycan array binding signal (z-score) [35]: 0.035 | glycan array binding signal (z-score) [36]: -0.756 | glycan array binding signal (z-score) [37]: -0.758 | glycan array binding signal (z-score) [38]: -0.059
